Source: the supplement of paper PMC12823440, “Inhibitors supercharge kinase turnover through native proteolytic circuits” (Nature, 2025)
Structures can show the parent of a compound that is named as a salt. The list shows a part of the results. Hit calls seldom repeat between salt and free forms of one compound.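 Kinases, fused to nanoluciferase, were expressed in K562 cells; luminescence was measured every 4 h from 2 to 18 h as percent of control (DMSO = 100%, positive control = 0%). A time point is decreased if signal falls significantly (2 sigma). Hits were called by the authors by a rule that is not shown; the count of time points alone does not decide it.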

Amino acid sequences for entries named in this document (tags omitted). A change or cut given only in a name is not applied to a line headed by its entry.
UniProt Q15208: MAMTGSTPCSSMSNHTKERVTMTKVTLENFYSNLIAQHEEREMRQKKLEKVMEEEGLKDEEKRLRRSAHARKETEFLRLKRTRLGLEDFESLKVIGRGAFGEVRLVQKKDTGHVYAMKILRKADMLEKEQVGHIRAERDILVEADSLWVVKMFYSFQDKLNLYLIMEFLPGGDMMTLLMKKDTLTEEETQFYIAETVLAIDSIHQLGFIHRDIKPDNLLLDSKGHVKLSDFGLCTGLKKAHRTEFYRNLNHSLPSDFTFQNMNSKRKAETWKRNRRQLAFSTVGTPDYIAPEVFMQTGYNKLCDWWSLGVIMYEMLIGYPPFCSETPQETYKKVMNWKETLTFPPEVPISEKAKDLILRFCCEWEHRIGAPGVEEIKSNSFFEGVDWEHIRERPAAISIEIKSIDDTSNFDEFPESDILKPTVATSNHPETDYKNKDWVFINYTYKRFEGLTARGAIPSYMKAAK

These compounds were tested against STK38 (UniProt Q15208) (assay: number of time points (of 5) at which kinase-Nluc abundance scored as decreased, DMSO-normalised (count); higher = more persistent destabilization). Conditions: K562; 2-18 h.

Structure (SMILES) | number of time points
COc1ccc(Cn2cc(C(=O)N=Nc3c(O)[nH]c4c(C)cccc34)nn2)cc1 [MARK4 inhibitor 1] (10 µM) | 0
COc1cc([N+](=O)[O-])ccc1S(=O)(=O)N1C[C@@H](CN2CCN(c3ccccn3)CC2)[C@H](c2cccc(F)c2)C1 (relative stereo) (10 µM) | 0
Cc1cc(Nc2nc(N[C@@H](C)c3ccc(F)cc3)c(C#N)cc2F)n[nH]1 (10 µM) | 0
Cc1ccc(S(=O)(=O)/C=C/C#N)cc1 (10 µM) | 0
Cc1c(CN2CCN(S(C)(=O)=O)CC2)sc2c(N3CCOCC3)nc(-c3cnc(N)nc3)nc12 (2.5 µM) | 0
COc1ccc(-c2ccc3c(N4CCOC[C@@H]4C)nc(N4CCOC[C@@H]4C)nc3n2)cc1CO (2.5 µM) | 3
CCN(CC)S(=O)(=O)c1ccc(OC)c(N2CCN(C(=O)c3ccc(F)cc3C(F)(F)F)CC2)c1 (10 µM) | 0
CC1CN(C(=O)Nc2ccc(Cl)c(Cl)c2)C(=Nc2ccc(F)cc2)S1 (centres undefined) (10 µM) | 0
COCCO[C@@H]1[C@H](O)[C@@H](CO)O[C@H]1n1cnc2c(=O)[nH]c(N)nc21 [2′-O-(2-Methoxyethyl)guanosine] (10 µM) | 0
COc1cc(F)c(F)c(Nc2ccc(I)cc2F)c1NS(=O)(=O)C1(C[C@H](O)CO)CC1 [Refametinib] (10 µM) | 0
CC(C)=CC[C@H](O)C1=CC(=O)c2c(O)ccc(O)c2C1=O [(-)-Alkannin] (2.5 µM) | 0
C[C@@]1(O)CCC[C@H]1n1c(=O)c(C(F)F)cc2cnc(NC3CCN(S(C)(=O)=O)CC3)nc21 (2.5 µM) | 0
CS(=O)(=O)c1ccc(-c2noc(C(F)(F)F)c2-c2ccccc2)cc1 (10 µM) | 0
COc1ccc2[nH]cc(/C=C3\C(=O)Nc4ccc(NC(=O)CCN5CCCCC5)cc43)c2c1 (2.5 µM) | 0
O=C(Nc1ccc(F)cc1F)[C@H](NC(=S)Nc1cc(C(F)(F)F)cc(C(F)(F)F)c1)c1ccccc1 (2.5 µM) | 0
CC(C)CN[C@H]1CS(=O)(=O)C[C@@H]1S(=O)(=O)c1ccc(Cl)cc1 (10 µM) | 0
COc1ccc(C2CC(c3ccccc3)=NN2c2ccc(S(N)(=O)=O)cc2)cc1 (centres undefined) (10 µM) | 0
CC/C=C\C/C=C\C/C=C\CCCCCCCC(=O)O [α-Linolenic acid] (10 µM) | 0
O=C(Nc1nc2ccccc2[nH]1)c1cccc(-n2cccc2)c1 (10 µM) | 0
COc1ncc(-c2nc(N3CCOCC3)nc3c(CN4CCC(C(C)(C)O)CC4)cc(F)cc23)cc1NS(C)(=O)=O [Linperlisib] (10 µM) | 0

Structure (SMILES) | number of time points
COc1ccc([C@H]2c3[nH]c4ccc(Cl)cc4c3CCN2C(=O)Oc2ccc(Cl)cc2)cc1 (2.5 µM) | 0
COc1c(NC(=O)C(=O)c2ccc(OCCN3CCOCC3)c3ccccc23)cc(C(C)(C)C)cc1NS(C)(=O)=O (2.5 µM) | 0
COc1ccc([C@@H]2CC(=O)c3c(O)cc(O)cc3O2)cc1O [Hesperetin] (10 µM) | 0
N#Cc1cccc(-c2c[nH]c3ncnc(N4CCOCC4)c23)c1 (10 µM) | 0
C/C(=C1/C(=O)Nc2ccc(NC(N)=O)cc21)c1ccc[nH]1 (10 µM) | 0
Nc1ncnc2c1c(-c1ccc(Oc3ccccc3)cc1)nn2C1CCNCC1 [N-piperidine Ibrutinib (hydrochloride)] (10 µM) | 0
N#Cc1ccc2ncnc(NC3CCC(N4CCOCC4)CC3)c2c1 (centres undefined) (10 µM) | 0
CC(=O)c1c(C)c2cnc(Nc3ccc(N4CCN(CCCCNC(=O)COc5cccc6c5C(=O)N(C5CCC(=O)NC5=O)C6=O)CC4)cn3)nc2n(C2CCCC2)c1=O (centres undefined) (10 µM) | 0
CC(C)=CC(=O)CCC(=O)N1CCN(Cc2cc3nc(-c4cccc5[nH]ncc45)nc(N4CCOCC4)c3s2)CC1 (10 µM) | 0
Cc1ccc(S(=O)(=O)Nc2ccccc2C=Nc2ccccc2NS(=O)(=O)c2ccc(C)cc2)cc1 (10 µM) | 0
NCCN1CCN(C/C=C/C(=O)N2CCC[C@@H](n3nc(-c4ccc(Oc5ccccc5)cc4)c4c(N)ncnc43)C2)CC1 [Ibrutinib-MPEA] (10 µM) | 0
O=C(CNC(=O)c1ccc(-c2ccccc2)cc1)NC1CCCc2ccccc21 (centres undefined) [TAO Kinase inhibitor 1] (10 µM) | 0
CC(C)CN(CC(=O)N1CCN(CC(OCc2ccc3ccccc3c2)c2ccc(Cl)cc2Cl)CC1)CC(C)C (centres undefined) [LYN-1604 (dihydrochloride)] (2.5 µM) | 0
CO[C@H]1C[C@@H]2CC[C@@H](C)[C@@](O)(O2)C(=O)C(=O)N2CCCC[C@H]2C(=O)O[C@H]([C@H](C)C[C@@H]2CC[C@@H](O)[C@H](OC)C2)CC(=O)[C@H](C)/C=C(\C)[C@@H](O)[C@@H](OC)C(=O)[C@H](C)C[C@H](C)/C=C/C=C/C=C/1C [Rapamycin] (10 µM) | 0
Cc1ccc(Nc2cc(-c3cccc(N4C(=O)c5ccccc5C4=O)c3)ncn2)cc1NS(C)(=O)=O (10 µM) | 0
Nc1cc(Nc2ccc(S(N)(=O)=O)cc2)ncn1 (10 µM) | 0
CCOc1cc(C(=O)N2CCC(N3CCN(C)CC3)CC2)ccc1Nc1ncc2c(n1)N(C1CCCC1)c1ccccc1C(=O)N2C (10 µM) | 0
COCCOc1ccc(-c2cn(-c3ccccc3)c3nc[nH]c(=O)c23)cc1 (10 µM) | 0
Cc1cc(O)c(C(C)C)cc1N=O [Poloxime] (10 µM) | 0

A different layout for part of the listing above:
Structure (SMILES)	number of time points
COc1cc(F)c(F)c(Nc2ccc(I)cc2F)c1NS(=O)(=O)C1(C[C@H](O)CO)CC1 [Refametinib] (10 µM)	0
O=C(Nc1ccc(F)cc1F)[C@H](NC(=S)Nc1cc(C(F)(F)F)cc(C(F)(F)F)c1)c1ccccc1 (2.5 µM)	0
CCOc1cc(C(=O)N2CCC(N3CCN(C)CC3)CC2)ccc1Nc1ncc2c(n1)N(C1CCCC1)c1ccccc1C(=O)N2C (10 µM)	0
